Results deposited as PubChem BioAssay AID1508588 (Peter MacCallum Cancer Centre, 2020).

Test: 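Which gene losses make BRAF-mutant melanoma cells more responsive to vemurafenib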 (primary screen)
System: human WM266.4 melanoma cells (BRAF V600 mutant)
Knock-down reagent: siRNA pool against human genes, 40 nM
Duration: 96 h from transfection to read-out
Conditions: vemurafenib 300 nM (about IC25), added 48 h after transfection, for 48 h; comparison arm got DMSO vehicle only
Measurement: 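Cell gain (DAPI nuclei at end minus before drug, mean of two replicates) and medium lactate by absorbance per cell, both as ratio to non-targeting siRNA, also grouped into fold-change classes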
Direction: cell gain with vemurafenib: higher = more cell gain than with non-targeting siRNA; lactate per cell with vemurafenib: higher = more lactate made per cell
Rule for the call: 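a knock-down counts as enhancing when its fold-change classes with vehicle and with vemurafenib, taken together, show a stronger drug effect on cell gain or lactate per cell; exact class pairs not stated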
Meaning of the calls: active = enhances vemurafenib effect; inactive = no enhancement seen
The deposit covers about 18,000 reagents; shown is a random part of them. 790 of all reagents (4.4%) were called active. 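Calls rest on a combination of fold-change classes in drug and vehicle arms, not all shown here.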 No sequences are given here.

no.	Gene	PubChem SID	cell gain with vemurafenib	lactate per cell with vemurafenib	outcome
1	STARD7-AS1 (STARD7 antisense RNA 1)	SID135624732	0.59	0.67	inactive
2	RNF111 (ring finger protein 111)	SID135621293	0.53	0.79	inactive
3	KRTAP1-5 (keratin associated protein 1-5)	SID134317737	-0.22	1.27	inactive
4	SPOCK2	SID152152978	0.39	0.96	inactive
5	IPO4 (importin 4)	SID152152828	0.51	1.53	inactive
6	ORC3 (origin recognition complex subunit 3)	SID56478627	0.39	0.77	inactive
7	HRH1 (histamine receptor H1)	SID152154156	0.62	0.54	inactive
8	TMEM255B (transmembrane protein 255B)	SID135623634	-0.09	1.24	inactive
9	DTNB (dystrobrevin beta)	SID135624188	0.58	1.52	inactive
10	OR2L2 (olfactory receptor family 2 subfamily L member 2)	SID152147139	0	0.91	inactive
11	THAP9 (THAP domain containing 9)	SID152152396	0.48	0.67	inactive
12	ALG11 (ALG11 alpha-1,2-mannosyltransferase)	SID134329760	1.05	0.72	inactive
13	CKLF (chemokine like factor)	SID135621992	0.73	0.38	inactive
14	PRUNE1 (prune exopolyphosphatase 1)	SID134318007	0.79	1	inactive
15	DSE (dermatan sulfate epimerase)	SID152147754	0.99	0.55	inactive
16	KRTAP5-7 (keratin associated protein 5-7)	SID135625305	0.4	1.81	inactive

6 of these entries, set out differently.
HRH1 (histamine receptor H1) [SID152154156] → cell gain with vemurafenib: 0.62; lactate per cell with vemurafenib: 0.54; outcome: inactive
TMEM255B (transmembrane protein 255B) [SID135623634] → cell gain with vemurafenib: -0.09; lactate per cell with vemurafenib: 1.24; outcome: inactive
DTNB (dystrobrevin beta) [SID135624188] → cell gain with vemurafenib: 0.58; lactate per cell with vemurafenib: 1.52; outcome: inactive
OR2L2 (olfactory receptor family 2 subfamily L member 2) [SID152147139] → cell gain with vemurafenib: 0; lactate per cell with vemurafenib: 0.91; outcome: inactive
THAP9 (THAP domain containing 9) [SID152152396] → cell gain with vemurafenib: 0.48; lactate per cell with vemurafenib: 0.67; outcome: inactive
ALG11 (ALG11 alpha-1,2-mannosyltransferase) [SID134329760] → cell gain with vemurafenib: 1.05; lactate per cell with vemurafenib: 0.72; outcome: inactive

Additional records:
no.	Gene	PubChem SID	cell gain with vemurafenib	lactate per cell with vemurafenib	outcome
17	EWSR1 (EWS RNA binding protein 1)	SID135620937	0.73	0.64	inactive
18	KRT72 (keratin 72)	SID134319315	0.69	0.53	inactive
19	CEACAM19 (CEA cell adhesion molecule 19)	SID134318006	0.59	0.94	inactive
20	GSG1 (germ cell associated 1)	SID152149313	0.21	1.23	inactive
21	RNF146 (ring finger protein 146)	SID134312203	0.61	1.38	inactive
22	DESI2 (desumoylating isopeptidase 2)	SID152149530	0.91	1.36	inactive
23	CPSF7 (cleavage and polyadenylation specific factor 7)	SID134319862	0.67	0.94	inactive
24	ASB18 (ankyrin repeat and SOCS box containing 18)	SID135625157	0.33	1.84	inactive
25	MCM8	SID134321233	0.58	1.16	inactive
26	CDK11A (cyclin dependent kinase 11A)	SID152154784	0.17	1.88	inactive
27	PDGFRB (platelet derived growth factor receptor beta)	SID152152554	0.55	1.24	inactive
28	TMEM203 (transmembrane protein 203)	SID134319242	0.12	1.7	inactive
29	PLGLB2 (plasminogen like B2)	SID152149231	0.77	0.69	inactive
30	MICOS13	SID134329406	0.85	0.64	inactive
31	NEK6 (NIMA related kinase 6)	SID56478779	0.65	1.32	inactive
32	TMEM63C (transmembrane protein 63C)	SID152150565	0.64	0.2	inactive
33	SERPINA13P (serpin family A member 13, pseudogene)	SID152156423	0.68	0.68	inactive
34	COX8A (cytochrome c oxidase subunit 8A)	SID135622202	0.76	0.84	inactive
